Assay results taken from paper doi:10.1101/513549.
Where two headings read alike, the source gives them in different places. No constants are given. Whether binding was seen depends on the method and setting. In cells and extracts the contact can be indirect. Some entries that bind do so weakly or less than the wild type.

Sequences of proteins named here, by UniProt entry; tags and fusion partners are left off.
UniProt Q13547: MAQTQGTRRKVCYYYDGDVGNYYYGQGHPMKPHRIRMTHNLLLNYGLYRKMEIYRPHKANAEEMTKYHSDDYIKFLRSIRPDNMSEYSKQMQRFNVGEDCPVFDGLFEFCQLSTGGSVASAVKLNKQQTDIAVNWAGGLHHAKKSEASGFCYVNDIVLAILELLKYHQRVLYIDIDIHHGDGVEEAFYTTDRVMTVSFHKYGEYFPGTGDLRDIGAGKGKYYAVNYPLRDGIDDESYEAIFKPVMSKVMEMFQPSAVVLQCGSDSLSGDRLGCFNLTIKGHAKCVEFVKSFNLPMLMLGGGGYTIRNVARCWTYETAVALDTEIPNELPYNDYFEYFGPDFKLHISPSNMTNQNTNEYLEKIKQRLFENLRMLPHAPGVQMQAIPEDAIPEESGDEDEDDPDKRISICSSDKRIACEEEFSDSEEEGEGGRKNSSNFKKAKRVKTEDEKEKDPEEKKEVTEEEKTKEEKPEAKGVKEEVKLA
UniProt Q99496: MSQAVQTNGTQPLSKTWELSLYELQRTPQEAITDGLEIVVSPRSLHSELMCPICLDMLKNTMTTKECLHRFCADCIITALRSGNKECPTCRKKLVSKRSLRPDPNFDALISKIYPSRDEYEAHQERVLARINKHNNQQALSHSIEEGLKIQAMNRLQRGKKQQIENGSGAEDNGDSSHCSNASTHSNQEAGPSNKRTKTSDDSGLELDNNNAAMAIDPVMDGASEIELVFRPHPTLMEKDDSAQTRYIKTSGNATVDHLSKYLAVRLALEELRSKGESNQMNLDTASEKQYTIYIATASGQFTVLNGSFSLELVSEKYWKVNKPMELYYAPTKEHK
UniProt Q14839: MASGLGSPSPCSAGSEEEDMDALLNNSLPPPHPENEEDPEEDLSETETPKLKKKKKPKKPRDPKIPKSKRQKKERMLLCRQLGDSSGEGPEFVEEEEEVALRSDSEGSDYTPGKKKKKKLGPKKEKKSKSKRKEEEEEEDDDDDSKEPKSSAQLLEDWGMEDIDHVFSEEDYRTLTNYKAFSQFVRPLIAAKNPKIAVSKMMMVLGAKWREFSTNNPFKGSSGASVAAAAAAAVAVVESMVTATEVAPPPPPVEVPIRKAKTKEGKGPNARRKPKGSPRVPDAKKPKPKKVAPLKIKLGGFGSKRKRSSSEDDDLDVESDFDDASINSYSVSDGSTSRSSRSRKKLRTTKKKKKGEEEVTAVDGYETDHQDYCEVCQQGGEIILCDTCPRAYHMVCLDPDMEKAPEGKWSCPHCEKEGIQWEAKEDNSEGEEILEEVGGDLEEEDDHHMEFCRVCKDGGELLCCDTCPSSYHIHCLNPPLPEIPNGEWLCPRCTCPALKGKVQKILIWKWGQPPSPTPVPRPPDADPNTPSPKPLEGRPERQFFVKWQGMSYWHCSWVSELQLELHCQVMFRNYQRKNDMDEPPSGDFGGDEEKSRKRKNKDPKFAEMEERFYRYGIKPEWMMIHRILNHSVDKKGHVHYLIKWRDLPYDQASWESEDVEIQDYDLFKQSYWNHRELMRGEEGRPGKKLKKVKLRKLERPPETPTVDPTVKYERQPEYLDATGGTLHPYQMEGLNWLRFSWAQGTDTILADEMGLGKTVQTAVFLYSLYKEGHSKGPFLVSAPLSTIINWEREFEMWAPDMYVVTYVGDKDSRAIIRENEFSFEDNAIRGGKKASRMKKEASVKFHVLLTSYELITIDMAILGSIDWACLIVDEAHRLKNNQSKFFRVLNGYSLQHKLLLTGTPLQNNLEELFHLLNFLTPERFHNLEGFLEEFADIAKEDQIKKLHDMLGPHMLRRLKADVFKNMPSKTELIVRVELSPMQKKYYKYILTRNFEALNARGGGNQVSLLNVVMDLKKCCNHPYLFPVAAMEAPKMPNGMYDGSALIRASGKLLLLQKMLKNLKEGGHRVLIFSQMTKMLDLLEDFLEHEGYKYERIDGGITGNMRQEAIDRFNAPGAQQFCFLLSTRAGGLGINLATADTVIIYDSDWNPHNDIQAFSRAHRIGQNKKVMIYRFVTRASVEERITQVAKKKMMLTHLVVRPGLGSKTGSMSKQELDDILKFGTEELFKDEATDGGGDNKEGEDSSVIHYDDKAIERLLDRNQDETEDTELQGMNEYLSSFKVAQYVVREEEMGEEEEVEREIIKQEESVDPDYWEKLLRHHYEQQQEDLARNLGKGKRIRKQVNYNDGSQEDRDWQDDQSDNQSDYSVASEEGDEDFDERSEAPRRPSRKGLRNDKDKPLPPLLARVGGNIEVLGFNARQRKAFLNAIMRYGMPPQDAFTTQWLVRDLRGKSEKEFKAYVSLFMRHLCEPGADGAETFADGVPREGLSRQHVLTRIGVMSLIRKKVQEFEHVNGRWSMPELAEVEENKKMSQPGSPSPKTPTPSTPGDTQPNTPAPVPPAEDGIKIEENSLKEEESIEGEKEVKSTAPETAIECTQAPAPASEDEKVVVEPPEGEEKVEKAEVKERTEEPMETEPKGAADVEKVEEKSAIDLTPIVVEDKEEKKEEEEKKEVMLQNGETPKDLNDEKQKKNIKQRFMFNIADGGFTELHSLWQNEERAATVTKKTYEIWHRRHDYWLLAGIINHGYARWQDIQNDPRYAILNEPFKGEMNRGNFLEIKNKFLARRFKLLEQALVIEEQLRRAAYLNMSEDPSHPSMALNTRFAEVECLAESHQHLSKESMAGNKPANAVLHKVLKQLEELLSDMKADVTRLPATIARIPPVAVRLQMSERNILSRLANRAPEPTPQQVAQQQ
UniProt Q92585: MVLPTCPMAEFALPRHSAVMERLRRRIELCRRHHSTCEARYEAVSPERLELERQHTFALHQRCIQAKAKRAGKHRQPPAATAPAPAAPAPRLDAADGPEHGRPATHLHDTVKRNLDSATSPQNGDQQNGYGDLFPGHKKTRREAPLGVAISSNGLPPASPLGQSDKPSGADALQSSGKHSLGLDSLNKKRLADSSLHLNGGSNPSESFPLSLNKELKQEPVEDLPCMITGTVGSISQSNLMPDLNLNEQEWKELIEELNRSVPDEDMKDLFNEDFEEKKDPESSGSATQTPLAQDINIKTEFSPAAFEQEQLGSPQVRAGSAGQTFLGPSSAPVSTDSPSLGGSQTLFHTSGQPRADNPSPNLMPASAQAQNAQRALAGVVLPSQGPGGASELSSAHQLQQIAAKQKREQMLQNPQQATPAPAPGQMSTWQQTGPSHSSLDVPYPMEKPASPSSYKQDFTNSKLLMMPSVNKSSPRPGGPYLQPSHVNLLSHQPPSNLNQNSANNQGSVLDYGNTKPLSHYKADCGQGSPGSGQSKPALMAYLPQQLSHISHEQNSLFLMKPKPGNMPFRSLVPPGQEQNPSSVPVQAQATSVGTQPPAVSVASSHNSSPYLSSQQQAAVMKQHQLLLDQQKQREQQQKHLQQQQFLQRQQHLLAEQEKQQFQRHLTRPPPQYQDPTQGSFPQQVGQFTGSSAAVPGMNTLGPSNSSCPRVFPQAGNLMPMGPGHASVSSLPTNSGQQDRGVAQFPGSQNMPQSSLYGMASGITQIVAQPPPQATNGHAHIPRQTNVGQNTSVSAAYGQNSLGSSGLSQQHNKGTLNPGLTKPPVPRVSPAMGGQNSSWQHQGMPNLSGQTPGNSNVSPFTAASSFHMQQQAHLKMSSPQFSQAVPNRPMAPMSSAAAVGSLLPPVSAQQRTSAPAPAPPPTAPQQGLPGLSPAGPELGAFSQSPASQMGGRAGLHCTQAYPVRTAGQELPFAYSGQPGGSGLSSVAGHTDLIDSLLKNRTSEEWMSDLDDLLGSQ
UniProt Q06330: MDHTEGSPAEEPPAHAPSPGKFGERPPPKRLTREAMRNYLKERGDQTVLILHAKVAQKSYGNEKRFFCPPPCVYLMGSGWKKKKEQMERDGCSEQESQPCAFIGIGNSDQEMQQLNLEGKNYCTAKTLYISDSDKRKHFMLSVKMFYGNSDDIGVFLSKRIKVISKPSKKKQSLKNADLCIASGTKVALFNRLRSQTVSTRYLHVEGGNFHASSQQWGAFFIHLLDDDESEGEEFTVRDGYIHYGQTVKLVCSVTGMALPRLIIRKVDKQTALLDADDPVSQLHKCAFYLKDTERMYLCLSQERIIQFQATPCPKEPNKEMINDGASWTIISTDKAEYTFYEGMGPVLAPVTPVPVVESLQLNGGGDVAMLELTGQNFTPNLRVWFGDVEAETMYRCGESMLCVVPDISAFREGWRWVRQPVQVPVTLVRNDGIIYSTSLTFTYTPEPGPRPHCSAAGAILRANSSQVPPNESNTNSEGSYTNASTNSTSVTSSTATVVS

How the values were obtained:
Test in all cases: co-IP
FLAG-HDAC1 (human) [1] = target: FLAG-HDAC1 (human) (UniProt Q13547)
RNF2-FLAG (human) = RNF2-FLAG (human) (UniProt Q99496)
FLAG-HDAC1 (human) [2] = target: FLAG-HDAC1 (human) (UniProt Q13547); remark: listed apart in the source

Substance	binding (FLAG-HDAC1 (human) [1])	binding (RNF2-FLAG (human))	binding (FLAG-HDAC1 (human) [2])
MI2β/CHD4 (from UniProt Q14839 1-1912)	binds	–	–
MAML1 (from UniProt Q92585 1-1016)	binds	binds	binds
CSL (RBP-Jκ/CBF-1) (from UniProt Q06330 1-500)	binds	binds	binds
